Test results from US6160202.
Weaker means in comparison with the reference protein, sequence or condition of that experiment. Protein sequences can lack the tags named with them.

Tested on: T1, ROM1 (PvbZIP1, PvSF1) (Phaseolus vulgaris)
T1 sequence (limits assumed): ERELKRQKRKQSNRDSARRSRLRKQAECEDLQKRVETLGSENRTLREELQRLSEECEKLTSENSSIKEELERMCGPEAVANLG
Assay: footprint
Details: bZIP1 produced only weak footprints on UAS1; purified recombinant protein; protein details: His6, E. coli, pET15b, Ni-agarose

GCGTGTCAT (double strand) [phaseolin site C]
binding result: binds more weakly
